The list is a part of this screen's results and no random one: it covers a few groups of compounds. Other doses and runs of a compound may be missing. T/C is the treated group as % of the vehicle group. Where survival is the endpoint, the PubChem record calls one and a half times the control and up active, and a quarter to a half above the control has no call in these data; cut-offs in other NCI protocols can differ. Schedules are NCI's codes, read here as Q, the interval in days (D) or hours (H), X, the number of doses. Some entries show no survivor count and are marked so; the dose need not have been tolerated. Some entries were tested several times; their values stand side by side, smallest first.
System: CD2F1 mice, L1210 leukemia ip, survival T/C
Assay: NCI In Vivo Anticancer Drug Screen. Data for tumor model L1210 Leukemia (intraperitoneal) in CD2F1 (CDF1) mice
Conditions: T/C endpoint: mean survival time, higher T/C = longer survival
Experimental: The antitumor activity of compounds was measured in mice bearing transplantable tumors. Survival or tumor size were measured and the results are expressed as the measurement made in the treated group (T) divided by the measurement made in the vehicle treated control group (C). The tumor model used in this assay is L1210 Leukemia (intraperitoneal) in CD2F1 (CDF1) mice

For `C[C@H](O)[C@H]1/C=C/C=C\C(=O)O[C@@H]2C[C@H]3O[C@@H]4[C@@H]5O[C@]5(C)CCC4(COC(=O)[C@H]4O[C@]4(C)[C@@H](O)CO1)[C@]2(C)[C@]31CO1` (stereo not given in full), the T/C (dose: 625.0 micrograms/kg/injection, schedule: Q01DX009 (ip), vehicle: saline + alcohol) was 138 % of control [survivor count not shown], the T/C (dose: 1250.0 micrograms/kg/injection, schedule: Q01DX009 (ip), vehicle: saline + alcohol) was 134 % of control [survivor count not shown] and the T/C (dose: 2500.0 micrograms/kg/injection, schedule: Q01DX009 (ip), vehicle: saline + alcohol) was 149 % of control [survivor count not shown]. The T/C (dose: 5000.0 micrograms/kg/injection, schedule: Q01DX009 (ip), vehicle: saline + alcohol) was 151 % of control [survivor count not shown].
In the case of `CC(=O)OC[C@]12CCC(C)=C[C@H]1O[C@@H]1[C@H](O)[C@@H](OC(C)=O)[C@@]2(C)[C@@]12CO2`, the T/C (dose: 3.13 mg/kg/injection, schedule: Q04DX002 (ip), vehicle: saline with Tween-80) is reported as 105 % of control [survivor count not shown], the T/C (dose: 6.25 mg/kg/injection, schedule: Q04DX002 (ip), vehicle: saline with Tween-80) is reported as 101 % of control [survivor count not shown] and the T/C (dose: 12.5 mg/kg/injection, schedule: Q04DX002 (ip), vehicle: saline with Tween-80) is reported as 116 % of control [survivor count not shown].
`CC1=C[C@H]2O[C@@H]3C[C@H]4OC(=O)/C=C\C=C\C5OC(C/C(C)=C\C(=O)OCC2(CC1)[C@]4(C)[C@]31CO1)OC5C` (stereo not given in full) was tested, and the T/C (dose: 0.78 mg/kg/injection, schedule: Q01DX009 (ip), vehicle: saline + Tween-80 + alcohol) was 110 % of control [survivor count not shown], the T/C (dose: 0.78 mg/kg/injection, schedule: Q01DX009 (ip), vehicle: saline with Tween-80) was 100 % of control [survivor count not shown] and the T/C (dose: 1.56 mg/kg/injection, schedule: Q01DX009 (ip), vehicle: saline + Tween-80 + alcohol) was 108 % of control [survivor count not shown]. The T/C (dose: 1.56 mg/kg/injection, schedule: Q01DX009 (ip), vehicle: saline with Tween-80) was 98 % of control [survivor count not shown], the T/C (dose: 3.12 mg/kg/injection, schedule: Q01DX009 (ip), vehicle: saline + Tween-80 + alcohol) was 112 % of control [survivor count not shown] and the T/C (dose: 6.25 mg/kg/injection, schedule: Q01DX009 (ip), vehicle: saline + Tween-80 + alcohol) was 110 % of control [survivor count not shown]. The T/C (dose: 12.5 mg/kg/injection, schedule: Q01DX009 (ip), vehicle: saline + Tween-80 + alcohol) was 125 % of control [survivor count not shown].
With `CC(=O)OC[C@]12C[C@H](OC(=O)CC(C)C)C(C)=C[C@H]1O[C@@H]1[C@H](O)[C@@H](O)[C@@]2(C)[C@@]12CO2` the T/C (dose: 0.5 mg/kg/injection, schedule: Q01DX009 (ip), vehicle: saline) was 117 % of control [survivor count not shown], the T/C (dose: 1.0 mg/kg/injection, schedule: Q01DX009 (ip), vehicle: saline) was 125 % of control [survivor count not shown] and the T/C (dose: 2.0 mg/kg/injection, schedule: Q01DX009 (ip), vehicle: saline) was 134 % of control [survivor count not shown].
In the case of `C[C@@H](O)[C@H]1/C=C/C=C\C(=O)O[C@@H]2C[C@H]3O[C@@H]4[C@@H]5OC5(C)CCC4(COC(=O)[C@H]4O[C@]4(C)[C@@H](O)CO1)[C@]2(C)[C@]31CO1` (stereo not given in full), the T/C (dose: 1.25 mg/kg/injection, schedule: Q01DX009 (ip), vehicle: saline + Tween-80 + alcohol) is reported as 126 % of control [survivor count not shown], the T/C (dose: 1.25 mg/kg/injection, schedule: Q01DX009 (ip), vehicle: saline + alcohol) is reported as 111 % of control [survivor count not shown] and the T/C (dose: 2.5 mg/kg/injection, schedule: Q01DX009 (ip), vehicle: saline + Tween-80 + alcohol) is reported as 137 % of control [survivor count not shown]. For the same compound, the T/C (dose: 2.5 mg/kg/injection, schedule: Q01DX009 (ip), vehicle: saline + alcohol) was 117 % of control [survivor count not shown], the T/C (dose: 5.0 mg/kg/injection, schedule: Q01DX009 (ip), vehicle: saline + alcohol) was 128 [survivor count not shown] and 132 % of control [survivor count not shown] and the T/C (dose: 10.0 mg/kg/injection, schedule: Q01DX009 (ip), vehicle: saline + alcohol) was 115 [survivor count not shown] and 118 % of control [survivor count not shown]. For the same compound, the T/C (dose: 20.0 mg/kg/injection, schedule: Q01DX009 (ip), vehicle: saline + alcohol) was 132 % of control [survivor count not shown] and the T/C (dose: 40.0 mg/kg/injection, schedule: Q01DX009 (ip), vehicle: saline + alcohol) was 117 [survivor count not shown] and 157 % of control [survivor count not shown].

Reference: PubChem BioAssay AID256 (DTP/NCI, 2004)
